Source: the supplement of paper PMC10338343
± gives the standard deviation. The list shows a part of the results, in another mix than the full data. Many entries were measured with a wide error. The list shows a part of the results.

Columns and labels:
[1] = test system: MILI (PIWIL2) piRISC loaded with L1MC piRNA (26 nt); assay: pre-steady-state target cleavage rate (min^-1); higher = faster piRNA-guided slicing of the target; conditions: guide: L1MC piRNA 5'p-UAACUAAAUACUAUGCAAGCUGUAGG
Summary of the method: (§1)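 The pre-steady-state cleavage rate came from a burst-and-steady-state fit to pooled data from three Cleave-'n-Seq trials, in which uncleaved targets were sequenced and normalised to depth and to weakly complementary targets. Each reaction held 0.1 nM transcribed, DNA-blocked target RNA library and 1 nM active affinity-purified piRISC carrying one synthetic guide, with or without 500 nM GTSF1 partner protein, in HEPES–potassium acetate buffer at 33 °C for 0–8 or 0–960 min. k3 was capped at 0.0001 min^-1.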

[2] = test system: EfPiwi piRISC loaded with L1MC piRNA (26 nt); assay: pre-steady-state target cleavage rate (min^-1); guide: L1MC piRNA 5'p-UAACUAAAUACUAUGCAAGCUGUAGG; MIWI and MILI are mouse PIWI proteins and EfPiwi is from a freshwater sponge; tags in brackets are library labels; higher = faster piRNA-guided slicing of the target
Summary of the method: as §1

[3] = auxiliary factor: 500 nM mouse GTSF1
[4] = auxiliary factor: none (no GTSF1)
[5] = auxiliary factor: none (no Gtsf1)
[6] = auxiliary factor: 500 nM Ephydatia muelleri Gtsf1

Row | Sequence | pre-steady-state target cleavage rate [1, 3] | pre-steady-state target cleavage rate [1, 4] | pre-steady-state target cleavage rate [2, 5] | pre-steady-state target cleavage rate [2, 6]
1 | UCCUCCUACAGCUUGCAUACGUAUUUAGUUA | 0.00561 ± 0.0046 | 0.00122 ± 0.0046 | 0.000123 ± 0.042 | 
2 | UCCUGGAUGAGCUUGUAUAGUAUUUAGUUA | 0.181 ± 0.015 | 0.0088 ± 0.0033 |  | 0.0538 ± 0.014
3 | UCCUGGAUGUCGUUGCAUAGUAUUAUCAAA [g7:g18:cont:t1A] | 0.00201 ± 0.0056 | 0.000473 ± 0.011 |  | 0.00024 ± 0.013
4 | UCCUGGUACAGCUUGCUUAGUAAUUAGUUA | 0.128 ± 0.036 | 0.0116 ± 0.0032 |  | 0.00675 ± 0.0033
5 | UCCUCCUACAGCUUGCAUAUUAUUUAGUUA |  | 0.00236 ± 0.0033 |  | 0.0783 ± 0.025
6 | UCCUGGAUGUGCAUGCAAAGUAUUUAGUUA | 0.0175 ± 0.0048 | 0.00933 ± 0.0024 |  | 0.000478 ± 0.011
7 | UCCUGCUUCAGCUUGCAUAGUAUUUAGUUA | 0.312 ± 0.019 |  |  | 0.103 ± 0.025
8 | UCCUCCUACAGCUUGCAUACUAUUUUGUUA |  | 0.00156 ± 0.0032 |  | 0.00468 ± 0.0034
9 | UCCUGGAUCAGCUUCGCAUAGUAUUUAGUUA | 0.309 ± 0.02 |  |  | 0.0389 ± 0.009
10 | UCCUCCUACAGCUUGCAUAGAAUUUAGAUA | 0.0558 ± 0.014 | 0.00111 ± 0.004 | 0.000291 ± 0.013 | 
11 | UCCUGGAUGUCGAACGUUAGUAUUUGGUUA |  | 0.000119 ± 0.034 | 0.00018 ± 0.038 | 
12 | UCCUCCUAGCAGCUUGCAUAGUAUUUAGUUA | 0.295 ± 0.018 |  |  | 0.0339 ± 0.0083
13 | UCCUGGUACAGCAUGCAUAGUUUUUAGUUA | 0.038 ± 0.015 | 0.00749 ± 0.0033 |  | 0.0046 ± 0.0027
14 | UCCUGGAUGUGCUUGCAUAGUAUUUAGAAA |  | 0.00114 ± 0.0054 | 0.000322 ± 0.026 | 
15 | UCCUGGAUGUCCUUGCACAGUAUUUAGUUA | 0.145 ± 0.028 | 0.00389 ± 0.0023 |  | 0.00454 ± 0.0024
16 | UCCUCCUACAGCAUGCAUAGUAUUUAGUUA | 0.316 ± 0.021 |  |  | 0.0743 ± 0.019
17 | UCCUGGAUGAGCUUGCAUAGUUUUUAGAAA | 0.00151 ± 0.0079 | 0.000767 ± 0.0091 | 0.00023 ± 0.038 | 
18 | UCCUGGAUGUCGAACGAUACAUUUUAGUUA |  | 0.000196 ± 0.018 |  | < 0.0001
19 | UCCUCCUACAGCUUGCAUAGUAUUUUCUUA | 0.126 ± 0.027 |  |  | 0.00493 ± 0.003
20 | UCCUGCUACAGCUUGCAUAGUAUUUAGUUA [g2:g25:cont:t1A] | 0.282 ± 0.019 |  |  | 0.0357 ± 0.011
21 | UCCUGGAUCAGCUUGCAUACUAUUUACUUA |  | 0.00103 ± 0.006 |  | 0.00362 ± 0.0032
22 | UCCUCCUUGUGCUUGCAUAGUAUUUAGUUA | 0.157 ± 0.012 | 0.00963 ± 0.002 |  | 0.0113 ± 0.0034
23 | UCCUCCUACAGGAAGCAUAGUAUUUAGUUA | 0.292 ± 0.011 | 0.00603 ± 0.0024 |  | 0.0159 ± 0.0041
24 | UCCUGGUACAGCUUGCAUAGUAUAAUCAAA |  | 0.00075 ± 0.0085 |  | 0.00151 ± 0.0037
25 | UCCUGGAUGUCGAACGUAUCUAUUUAGUGUA |  | 0.000142 ± 0.03 | 0.000552 ± 0.017 | 

Fetched one by one from above (3):
Row | Sequence | pre-steady-state target cleavage rate [1, 3] | pre-steady-state target cleavage rate [1, 4] | pre-steady-state target cleavage rate [2, 5] | pre-steady-state target cleavage rate [2, 6]
10 | UCCUCCUACAGCUUGCAUAGAAUUUAGAUA | 0.0558 ± 0.014 | 0.00111 ± 0.004 | 0.000291 ± 0.013 | 
11 | UCCUGGAUGUCGAACGUUAGUAUUUGGUUA |  | 0.000119 ± 0.034 | 0.00018 ± 0.038 | 
14 | UCCUGGAUGUGCUUGCAUAGUAUUUAGAAA |  | 0.00114 ± 0.0054 | 0.000322 ± 0.026 | 

The results go on.

Row | Sequence | pre-steady-state target cleavage rate [1, 3] | pre-steady-state target cleavage rate [1, 4] | pre-steady-state target cleavage rate [2, 5] | pre-steady-state target cleavage rate [2, 6]
26 | UCCUGGAUGUCCUUGCAUAGUAUUUAGUA | 0.0747 ± 0.012 | 0.00356 ± 0.0024 |  | 0.00759 ± 0.0039
27 | UCCUCCUACUGCUUCCAUAGUAUUUAGUUA |  | 0.00149 ± 0.0032 |  | 0.0043 ± 0.0018
28 | UCCUGGAACAGCUUGCAUAGUAUUUAGCUUA | 0.195 ± 0.047 | 0.00202 ± 0.004 |  | 0.00529 ± 0.0018
29 | UCCUGCUACUGCUUGCAUAGUAUAUAGUUA |  | 0.00235 ± 0.0029 |  | 0.00619 ± 0.0031
30 | UCCUGGAUCAGCUAGCAUAGUAUUUAGUAA | 0.219 ± 0.012 | 0.00665 ± 0.0023 |  | 0.00362 ± 0.0032
31 | UCCUCCUUGAGCUUGCAUAGUAUUUACAAA | 0.0856 ± 0.023 | 0.00119 ± 0.0045 |  | 0.00316 ± 0.0022
32 | UCCUCCUAGAGCUUGCAUAGUAUUUUGUUA |  | 0.00246 ± 0.0026 |  | 0.006 ± 0.0024
33 | UCCUCGUACUGCUUGCAUAGUAUUUAGUUA | 0.264 ± 0.0097 | 0.00745 ± 0.0024 |  | 0.0721 ± 0.018
34 | UCCUCCAACAGCUUGCUUAGUAUUUAGUUA | 0.262 ± 0.017 | 0.0066 ± 0.0021 |  | 0.0148 ± 0.0053
35 | UCCUGGAUGUCGAACGUAAGUAUUAAGUAA |  | 0.000132 ± 0.036 |  | 0.000372 ± 0.018
36 | UCCUCCUUGAGCUUGCAUAGUAUUUAGAAA |  | 0.00136 ± 0.0046 |  | 0.00549 ± 0.0018
37 | UCCUCCUAGAGCUUGCAUAGAAUUUAGUUA | 0.0513 ± 0.0099 | 0.00171 ± 0.0033 |  | 0.00468 ± 0.0013
38 | UCCUGGUACAGCUUGCUUAGUAUUUAGAUA |  | 0.00152 ± 0.0056 | 0.000634 ± 0.013 | 
39 | UCCUGGAUGUGCUUGCAUAGUAUUUAGAUUA |  | 0.00141 ± 0.0061 | 0.000928 ± 0.011 | 
40 | UCCUGGAUGAGCAUGCAUACUAUUUAGUUA | 0.0556 ± 0.011 | 0.00656 ± 0.0024 |  | 0.00175 ± 0.0023
41 | UCCUGGAUGUCCUUGCAUAGUAUUUAGGUUA | 0.0768 ± 0.019 | 0.00311 ± 0.0038 | 0.000318 ± 0.024 | 
42 | UCCUGGAUCAGCUUGCAUAGUAUAAUGAAA | 0.0691 ± 0.022 | 0.00132 ± 0.0059 |  | 0.0033 ± 0.0037
43 | UCCUGGAUGUCCUCGCAUAGUAUUUAGUUA | 0.0711 ± 0.01 | 0.00777 ± 0.0022 |  | 0.00388 ± 0.0033
44 | UCCUGGUACAGCAUGCAUAGUAUUUUGUUA | 0.11 ± 0.022 | 0.00364 ± 0.0034 |  | 0.00273 ± 0.0034
45 | UCCUGGAUCAGCUAGCAAAGUAUUUAGUUA | 0.0976 ± 0.012 | 0.00566 ± 0.0019 |  | 0.00308 ± 0.0029
46 | UCCUCGAACAGCUUGCAUAGUAUUUAGAAA | 0.137 ± 0.019 | 0.00206 ± 0.0036 |  | 0.00534 ± 0.0018
47 | UCCUGCUACAGCUUGCAUACUAUUUACUUA | 0.0359 ± 0.011 | 0.00132 ± 0.0051 | 0.00015 ± 0.047 | 
48 | UCCUGGAUGAGCUUGCAUUGAAUUUAGUUA | 0.00697 ± 0.0027 | 0.00139 ± 0.0045 |  | 0.000994 ± 0.0058
49 | UCCUCCUACACCUUGCUUAGUAUUUAGUUA | 0.193 ± 0.022 | 0.00665 ± 0.0019 |  | 0.00914 ± 0.0039
